From the supplement of paper PMC8426693
The other results are listed elsewhere or left out.

What was measured:
Assay in all cases: NMR binding call after quantification (hit when 2 of 3 NMR criteria are met) (binary (1 = binding, 0 = not binding)); higher = binding
Settings in all cases: RNA concentration 10 µM; fragment concentration 200 µM; 293 K
[1] = system: SARS-CoV-2 5_SL7 RNA
[2] = system: SARS-CoV-2 5_SL8 RNA
[3] = system: SARS-CoV-2 attenuator hairpin (att HP) RNA
[4] = system: SARS-CoV-2 frameshift pseudoknot (PK) RNA

## Cc1ccc(-c2noc(CNC(C)C)n2)cc1
[1]
  NMR binding call: 1
[2]
  NMR binding call: 0
[3]
  NMR binding call: 0
[4]
  NMR binding call: 0

## Cc1nn(Cc2c(C)noc2C)c(=O)s1
[1]
  NMR binding call: 0
[2]
  NMR binding call: 0
[3]
  NMR binding call: 0
[4]
  NMR binding call: 0

## Cc1ccc(CN2CCS(=O)(=O)CC2)cc1
[1]
  NMR binding call: 0
[2]
  NMR binding call: 0
[3]
  NMR binding call: 0
[4]
  NMR binding call: 0

## O=C(Nc1nnc(-c2ccco2)s1)C1CC1
[1]
  NMR binding call: 0
[2]
  NMR binding call: 0
[3]
  NMR binding call: 0
[4]
  NMR binding call: 0

## CCOC(=O)c1cc(-c2ccc(F)cc2)no1
[1]
  NMR binding call: 0
[2]
  NMR binding call: 0
[3]
  NMR binding call: 0
[4]
  NMR binding call: 0

## CC(=O)Nc1ccccc1O
[1]
  NMR binding call: 0
[2]
  NMR binding call: 0
[3]
  NMR binding call: 0
[4]
  NMR binding call: 0

## COc1ccc(CNC(=O)c2csnn2)cc1
[1]
  NMR binding call: 0
[2]
  NMR binding call: 0
[3]
  NMR binding call: 0
[4]
  NMR binding call: 0

## CC(=O)N1CCOC(CO)C1 (configuration not stated)
[1]
  NMR binding call: 0
[2]
  NMR binding call: 0
[3]
  NMR binding call: 0
[4]
  NMR binding call: 0
